Source: US5128398A, “Phenolic compound and its use as stabilizer for butadiene polymer” (Sumitomo Chemical Company, Limited, priority 1987, dated 1992)

Columns and labels:
[1] = Gelation time of polybutadiene rubber in Laboplastmill kneading test under nitrogen (torque peak); conditions: 180° C.
[2] = Degree of discoloration of stranded styrene-butadiene block copolymer after high temperature processing (visual); set-up: key: .largecircle.: No discoloration; Δ: Discoloration in light yellow; X: Discoloration in yellow; conditions: strand, cylinder 230°-260° C.
[3] = Degree of discoloration of polybutadiene rubber after high temperature preparation process (naked eye); set-up: key: .largecircle.: No discoloration; Δ: Discoloration in light yellow; X: Discoloration in yellow; conditions: flash distillation 190°-200° C., nitrogen
[4] = loading 0.4 part by weight per 100 parts polybutadiene
[5] = loading 0.8 part by weight per 100 parts polybutadiene
[6] = loading 0.4 part by weight per 100 parts block copolymer
[7] = loading 0.8 part by weight per 100 parts block copolymer
[8] = loading 0.2 part by weight per 100 parts polybutadiene
[9] = loading 0.2 part by weight per 100 parts block copolymer

Compound | Gelation time [1, 4] | Gelation time [1, 5] | Degree of discoloration [2, 6] | Degree of discoloration [2, 7] | Degree of discoloration [3, 4] | Degree of discoloration [3, 5] | Gelation time [1, 8] | Degree of discoloration [2, 9] | Degree of discoloration [3, 8]
CCCCCCCCCCCCCCCCCCOC(=O)CCc1cc(C(C)(C)C)c(O)c(C(C)(C)C)c1 [AO-4, n-Octadecyl 3-(3,5-di-t-butyl-4-hydroxyphenyl)propionate] | 8 min | 13 min | .largecircle. | .largecircle. | .largecircle. | .largecircle. |  |  | 
C=CC(=O)Oc1c(C(C)c2cc(C(C)(C)CC)cc(C(C)(C)CC)c2O)cc(C(C)(C)CC)cc1C(C)(C)CC (centres unmarked) [II-1, 2,4-di-t-amyl-6-[1-(3,5-di-t-amyl-2-hydroxyphenyl)ethyl]phenyl acrylate] | 71 min |  | .largecircle. |  | .largecircle. |  | 47 min | .largecircle. | .largecircle.
C=CC(=O)Oc1c(C(C)c2cc(C(C)(C)C)cc(C(C)(C)C)c2O)cc(C(C)(C)C)cc1C(C)(C)C (centres unmarked) [AO-2, 2,4-Di-t-butyl-6-[1-(3,5-di-t-butyl-2-hydroxyphenyl)ethyl]phenyl acrylate] | 67 min |  | .largecircle. |  | .largecircle. |  | 45 min | .largecircle. | .largecircle.
C=CC(=O)Oc1c(Cc2cc(C)cc(C(C)(C)C)c2O)cc(C)cc1C(C)(C)C [AO-1, 2-t-Butyl-6-(3-t-butyl-2-hydroxy-5-methylbenzyl)-4-methylphenyl acrylate] | 31 min | 42 min | Δ | X | Δ | X |  |  | 
Cc1cc(C(C)(C)C)c(O)c(C(C)(C)C)c1 [AO-3, 2,6-Di-t-butyl-4-methylphenol] | 10 min | 14 min |  |  |  |  |  |  | 
C=C(C)C(=O)Oc1c(C(C)c2cc(C(C)(C)CC)cc(C(C)(C)CC)c2O)cc(C(C)(C)CC)cc1C(C)(C)CC (centres unmarked) [II-2, 2,4-di-t-amyl-6-[1--(3,5-di-t-amyl-2-hydroxyphenyl)ethyl]phenyl methacrylate] | 68 min |  | .largecircle. |  | .largecircle. |  | 43 min | .largecircle. | .largecircle.
